Measurements reported in PubChem BioAssay AID1259424 (University of Nebraska Medical Center, 2018).
Test: 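Find knockdowns that reproduce the expression shifts seen after KSR1 loss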 (primary screen). Cells: human HCT116 colon cancer cells. Knock-down reagent: siRNA pool against human genes, 50 nM. Measured: 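Six signature mRNAs by branched-DNA multiplex assay, scaled to two housekeeping genes and non-targeting median, log2; matched to mean KSR1 knockdown profile by Pearson correlation and euclidean distance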. Scale: mean correlation with KSR1 profile: higher = expression change more like KSR1 knockdown; mean distance from KSR1 profile: higher = expression change less like KSR1 knockdown.
Shown is an unselected part of about 14,000 reagents tested. 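Higher correlation or smaller distance means closer resemblance to KSR1 loss; control wells, including KSR1 knockdowns, recur on many plates.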 Further read-outs or replicates are left out here. Not given: the time to read-out.

{"gene": "MMP13 (matrix metallopeptidase 13)", "mean correlation with KSR1 profile": -0.766, "mean distance from KSR1 profile": 2.14}
{"gene": "MSTN (myostatin)", "mean correlation with KSR1 profile": 0.33, "mean distance from KSR1 profile": 1.42}
{"gene": "PNRC2 (proline rich nuclear receptor coactivator 2)", "mean correlation with KSR1 profile": -0.282, "mean distance from KSR1 profile": 1.61}
{"gene": "PRMT6 (protein arginine methyltransferase 6)", "mean correlation with KSR1 profile": -0.453, "mean distance from KSR1 profile": 5.95}
{"gene": "GPR88 (G protein-coupled receptor 88)", "mean correlation with KSR1 profile": 0.442, "mean distance from KSR1 profile": 2.17}
{"gene": "ADCY10 (adenylate cyclase 10)", "mean correlation with KSR1 profile": 0.487, "mean distance from KSR1 profile": 2.38}
{"gene": "CALR (calreticulin)", "mean correlation with KSR1 profile": -0.079, "mean distance from KSR1 profile": 2.47}
{"gene": "GRB7 (growth factor receptor bound protein 7)", "mean correlation with KSR1 profile": -0.378, "mean distance from KSR1 profile": 2.94}
{"gene": "PTPN12 (protein tyrosine phosphatase non-receptor type 12)", "mean correlation with KSR1 profile": -0.25, "mean distance from KSR1 profile": 2.25}
{"gene": "SVEP1", "mean correlation with KSR1 profile": 0.758, "mean distance from KSR1 profile": 2.48}

As entered above.
Value of MMP13 (matrix metallopeptidase 13) in “mean correlation with KSR1 profile”: -0.766
PNRC2 (proline rich nuclear receptor coactivator 2), mean distance from KSR1 profile → 1.61

More results follow.
{"gene": "RETREG2 (reticulophagy regulator family member 2)", "mean correlation with KSR1 profile": -0.0584, "mean distance from KSR1 profile": 1.7}
{"gene": "ALG10 (ALG10 alpha-1,2-glucosyltransferase)", "mean correlation with KSR1 profile": -0.355, "mean distance from KSR1 profile": 1.39}
{"gene": "ACYP2 (acylphosphatase 2)", "mean correlation with KSR1 profile": 0.79, "mean distance from KSR1 profile": 0.918}
{"gene": "DUSP11 (dual specificity phosphatase 11)", "mean correlation with KSR1 profile": 0.0212, "mean distance from KSR1 profile": 1.4}
{"gene": "WNK2 (WNK lysine deficient protein kinase 2)", "mean correlation with KSR1 profile": -0.518, "mean distance from KSR1 profile": 1.83}
{"gene": "OXSM (3-oxoacyl-ACP synthase, mitochondrial)", "mean correlation with KSR1 profile": -0.59, "mean distance from KSR1 profile": 1.51}
{"gene": "ALG3 (ALG3 alpha-1,3- mannosyltransferase)", "mean correlation with KSR1 profile": 0.0635, "mean distance from KSR1 profile": 3.24}
{"gene": "NOL6 (nucleolar protein 6)", "mean correlation with KSR1 profile": -0.781, "mean distance from KSR1 profile": 2.33}
{"gene": "ABAT (4-aminobutyrate aminotransferase)", "mean correlation with KSR1 profile": -0.245, "mean distance from KSR1 profile": 3.56}
